# Laboratory results from PMC7819943, “Rice protein-binding microarrays: a tool to detect cis-acting elements near promoter regions in rice”.
# Amino acid sequences for entries named in this document (tags omitted).
# UniProt Q0JBA9, entry or part of it: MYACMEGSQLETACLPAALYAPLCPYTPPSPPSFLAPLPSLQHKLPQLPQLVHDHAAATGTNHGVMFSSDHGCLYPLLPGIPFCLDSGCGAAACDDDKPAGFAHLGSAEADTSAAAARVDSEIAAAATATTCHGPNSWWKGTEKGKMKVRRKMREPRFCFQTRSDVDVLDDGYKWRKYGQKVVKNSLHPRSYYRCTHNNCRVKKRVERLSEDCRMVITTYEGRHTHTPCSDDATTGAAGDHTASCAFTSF
# Some of the results follow.
# Molecular target: OsWRKY34 (Oryza sativa, UniProt Q0JBA9 1-250)
# Test: protein-binding microarray (RPBM); PBS, 2% BSA, 51.3 ng/ul salmon testes DNA, 50 uM zinc acetate, 200 nM TF, 25 C, 1 h; high values mean tight binding
# Details: protein: recombinant; tags: N-terminal polyhistidine and DsRed monomer fusion (pET32a); label: CyDye5-dUTP incorporated in the synthesized complementary strand; 3' TTTTT single-stranded linker to array surface; dsDNA, one strand shown
# In short: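 Transcription factors were each fused at the N-terminus to a polyhistidine tag plus DsRed and expressed in E. coli BL21-CodonPlus before Ni–NTA purification. Binding to a double-stranded custom Agilent array was carried out with 200 nM protein at 25 °C for 1 h in PBS, 2% BSA, salmon testes DNA and 50 µM zinc acetate. The binding signal is per-feature fluorescence intensity, in arbitrary units, on an Axon 4000B scanner.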
row,Sequence,binding signal
1,AATTTTACTTCCGTCGTCCACACTTCATCCATCGTTCGCCCGGAGTCACCTAGTGCAG,14700 fluorescence intensity (a.u.)
2,GTCTTTGTTCAATTGTTCTTTGGCATGAATATTTTGTCAACGGAGTCACCTAGTGCAG,12300 fluorescence intensity (a.u.)
3,AAAACTTAGCTAGTTCAGCATCTCTGGTTCCTCACTTTATCGGAGTCACCTAGTGCAG,9060 fluorescence intensity (a.u.)
4,AGGTGGGTTGTTAATGTTGAACCGAGGTAGCGTGGTGGTGCGGAGTCACCTAGTGCAG,8870 fluorescence intensity (a.u.)
5,CACGGTTAGAGAGCTATAGCATACATAACTCACCAATTATCGGAGTCACCTAGTGCAG,8180 fluorescence intensity (a.u.)
6,TATCGCGGATCGCCGCTGTTGCCTTTTTGGCTCCTGGGTTCGGAGTCACCTAGTGCAG,8820 fluorescence intensity (a.u.)
7,TGGTTGTTCCTATTTCCTATTGTTTTCTCATTCATATGAACGGAGTCACCTAGTGCAG,8780 fluorescence intensity (a.u.)
8,GGAGTGTGTGATGCCATTGTAGGTATGTATGTGAAAACTGCGGAGTCACCTAGTGCAG,8300 fluorescence intensity (a.u.)
9,AAATGGGCATTATTGTGTGTAGTAGCATTTTGACATGTATCGGAGTCACCTAGTGCAG,9260 fluorescence intensity (a.u.)
10,CTGCGTGTATAGAAGGGCGGTTGCTGGTGGGAGGAGGAGGCGGAGTCACCTAGTGCAG,8070 fluorescence intensity (a.u.)
11,GAAATTCCTCGGTTTCCACGCGCGCTTTGGCATTTCTTTTCGGAGTCACCTAGTGCAG,9920 fluorescence intensity (a.u.)
12,CGGGGTTTGCGGAGGAAGGGGAGGGGCACCGCCCGCGATGCGGAGTCACCTAGTGCAG,8700 fluorescence intensity (a.u.)
13,TCAAGCCTGAGACGGCCTATTTGTCATTCTGTGGATATACCGGAGTCACCTAGTGCAG,8270 fluorescence intensity (a.u.)
14,TCTCGTGCTCTTGACCGCGCCCACCTTCTCCGGCCCGCGCCGGAGTCACCTAGTGCAG,11400 fluorescence intensity (a.u.)
15,TTTTATGCTTCAGTATCTAGTTTCCTGTTGTCATACTTAGCGGAGTCACCTAGTGCAG,12200 fluorescence intensity (a.u.)
16,TGAGTTGTTTAGTATGGAGGTGGGATAATTATTTTCTTTACGGAGTCACCTAGTGCAG,12000 fluorescence intensity (a.u.)
17,ATGTTTTGTTTGATTGTGTGCATGCCCTCTTTCTTATGATCGGAGTCACCTAGTGCAG,13500 fluorescence intensity (a.u.)
18,ATCGCTGGGACACGTCACCTTCCTTTCTATGCTCTCTTGACGGAGTCACCTAGTGCAG,11100 fluorescence intensity (a.u.)
19,TTCTTGTGTTTTTCCTATGACCTAATCTAACGATCATTCACGGAGTCACCTAGTGCAG,8230 fluorescence intensity (a.u.)
20,ATGCACTTTCCCACCGCATGTCTCGTCTCTAGCTATCTTGCGGAGTCACCTAGTGCAG,8750 fluorescence intensity (a.u.)
21,CACGACGCAGCATATGCTTGACCTTTATGTGTTTTACATACGGAGTCACCTAGTGCAG,9030 fluorescence intensity (a.u.)
22,CATCACCTCGCCCAGCCCGAACCATTCCCACCCCTCCAAACGGAGTCACCTAGTGCAG,9430 fluorescence intensity (a.u.)
23,ATTTCTTTTTCTAGGATGATCCTTTAGTAGTATCCTTTTTCGGAGTCACCTAGTGCAG,9840 fluorescence intensity (a.u.)
24,TCCCAGTGAAATAGTTACGTATTTTGTTTGTATACACGCGCGGAGTCACCTAGTGCAG,8360 fluorescence intensity (a.u.)
25,GCACACGTCCGCGCGACGCTTCGGTTTCCGCTTTCCATGCCGGAGTCACCTAGTGCAG,8700 fluorescence intensity (a.u.)
26,AGATTTTTTTGAACTTTCTGTCTGGGTCGGCTGTTTGTGTCGGAGTCACCTAGTGCAG,10500 fluorescence intensity (a.u.)
27,TTGCAAAATCTCTCTTCCCCATCGCCTCGGGTTTTGATCTCGGAGTCACCTAGTGCAG,9380 fluorescence intensity (a.u.)

# Three entries from above in another layout.
row | Sequence | binding signal
9 | AAATGGGCATTATTGTGTGTAGTAGCATTTTGACATGTATCGGAGTCACCTAGTGCAG | 9260 fluorescence intensity (a.u.)
17 | ATGTTTTGTTTGATTGTGTGCATGCCCTCTTTCTTATGATCGGAGTCACCTAGTGCAG | 13500 fluorescence intensity (a.u.)
24 | TCCCAGTGAAATAGTTACGTATTTTGTTTGTATACACGCGCGGAGTCACCTAGTGCAG | 8360 fluorescence intensity (a.u.)

# Reprinted from the results shown for reference:
row,Sequence,binding signal
15,TTTTATGCTTCAGTATCTAGTTTCCTGTTGTCATACTTAGCGGAGTCACCTAGTGCAG,12200 fluorescence intensity (a.u.)
16,TGAGTTGTTTAGTATGGAGGTGGGATAATTATTTTCTTTACGGAGTCACCTAGTGCAG,12000 fluorescence intensity (a.u.)

# Later entries.

row,Sequence,binding signal
1,GCTGCTTCTCGATGAGGAATATTTTTTTTGCTTCGGTTAACGGAGTCACCTAGTGCAG,9740 fluorescence intensity (a.u.)
2,CTACTGTAGCCACTGCTCGCTCTGCACTCTCTCTCTGTCTCGGAGTCACCTAGTGCAG,9600 fluorescence intensity (a.u.)
3,ACCGCACAGAGAGGGAGGAGGCGGGGAGGACGGTGAGGGGCGGAGTCACCTAGTGCAG,10500 fluorescence intensity (a.u.)
4,TGGAGGTGGTGGTGGGAGGAAGGGGAGGAGGAGGCGCGGCCGGAGTCACCTAGTGCAG,15100 fluorescence intensity (a.u.)
5,CTCCCGCCGTCTCCGTCACCGTCTACCGTTTGCTCCAGTGCGGAGTCACCTAGTGCAG,9530 fluorescence intensity (a.u.)
6,GTGTTTATCCCTTTTCAGACTGTTCTTTTTGGCTAAAACTCGGAGTCACCTAGTGCAG,10900 fluorescence intensity (a.u.)
7,GACGTCCACTCATTTATTGCCGTTCTACTATCTTACTGATCGGAGTCACCTAGTGCAG,11500 fluorescence intensity (a.u.)
8,TCTATAGCTCTCTAATCCATTGCCTCGTTTTTCTCTATAGCGGAGTCACCTAGTGCAG,8180 fluorescence intensity (a.u.)
9,TCTTCTTCGTCGTTGCCCGTTGACCCAAGAAGCTGTCTAACGGAGTCACCTAGTGCAG,11700 fluorescence intensity (a.u.)
10,TTCTCCGGCGACACTGCCACTGCCACGCGTCCCTCCCTTCCGGAGTCACCTAGTGCAG,8120 fluorescence intensity (a.u.)
11,AATCACAACATGTCTATATAAACCTTGCTCTACACCACAGCGGAGTCACCTAGTGCAG,10100 fluorescence intensity (a.u.)
12,TGCTCGGACCATTCCCCGCCCACCATCGCTGCACACTTTTCGGAGTCACCTAGTGCAG,17200 fluorescence intensity (a.u.)
13,GGACACTCCACACACTCGACCTATCAACTTCAAGTCTTCACGGAGTCACCTAGTGCAG,8520 fluorescence intensity (a.u.)
14,CGCTTCGTCGATGTCGCGTGGGCCCAGCCTCTCACATTTGCGGAGTCACCTAGTGCAG,8280 fluorescence intensity (a.u.)
15,CCTCGCGATCTCCACCATCTCCTTTACTCGTGGGCCCGCACGGAGTCACCTAGTGCAG,8800 fluorescence intensity (a.u.)
16,CGGTTTTTATGGGATAGAGGAAGTAGGTGCTTAGGCCCTCCGGAGTCACCTAGTGCAG,8530 fluorescence intensity (a.u.)
17,AATCTATAAAGTTTATCCTCACTATACTAATGTTATTTTTCGGAGTCACCTAGTGCAG,9100 fluorescence intensity (a.u.)
18,CAAATTGTTTTTTTAGTGGCTTTGTTCGTACTTATCCAAACGGAGTCACCTAGTGCAG,10800 fluorescence intensity (a.u.)
19,ATTTTAGTCATTCTCACTCTCCACTAATTCCACCTTAGATCGGAGTCACCTAGTGCAG,9620 fluorescence intensity (a.u.)
20,ATGAGAGAGGTAAAATAAACTTATTGCAAAATAGAAGGATCGGAGTCACCTAGTGCAG,8180 fluorescence intensity (a.u.)
21,GCGGTGCAGGGCGGTGGCGGCGGCGGGTGGGGCGGTGGCGCGGAGTCACCTAGTGCAG,20900 fluorescence intensity (a.u.)
22,GGAGCACCTGTCGTGCGCTGCCGCCATGTACGCGGCGCCGCGGAGTCACCTAGTGCAG,8360 fluorescence intensity (a.u.)
23,GACTTTTTAGCACATTTTTGACCGTTCATCTTATTCAAAACGGAGTCACCTAGTGCAG,8780 fluorescence intensity (a.u.)
24,AAACAGAACACAACCACACGCCACGAAACGAACAACAAAACGGAGTCACCTAGTGCAG,8400 fluorescence intensity (a.u.)
25,ATTTGGTCTCTAACTTCTCAGCTGGCTTTATACTTTGGGACGGAGTCACCTAGTGCAG,8810 fluorescence intensity (a.u.)
26,ACACCGTACTCACACCTCCACGAAGACGTTCCCAAACACACGGAGTCACCTAGTGCAG,8430 fluorescence intensity (a.u.)
27,GGTTTGCTGATGCTCATCTCTGACATTATTCTTTCTGAACCGGAGTCACCTAGTGCAG,8660 fluorescence intensity (a.u.)
